No constants are given. Whether binding was seen depends on the method and setting. For part of these data: Binding seen in cells or lysates may run through a third protein. Some entries that bind do so weakly or less than the wild type. Sequences can lack the tags named with a protein.

Amino acid sequences for entries named in this document (tags omitted).
UniProt O82481: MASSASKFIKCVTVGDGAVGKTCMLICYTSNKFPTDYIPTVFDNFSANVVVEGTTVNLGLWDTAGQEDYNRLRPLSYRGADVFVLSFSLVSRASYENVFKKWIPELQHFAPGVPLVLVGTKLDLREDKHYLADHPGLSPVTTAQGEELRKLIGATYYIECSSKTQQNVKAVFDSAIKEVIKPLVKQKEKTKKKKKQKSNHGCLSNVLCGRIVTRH
UniProt P49597: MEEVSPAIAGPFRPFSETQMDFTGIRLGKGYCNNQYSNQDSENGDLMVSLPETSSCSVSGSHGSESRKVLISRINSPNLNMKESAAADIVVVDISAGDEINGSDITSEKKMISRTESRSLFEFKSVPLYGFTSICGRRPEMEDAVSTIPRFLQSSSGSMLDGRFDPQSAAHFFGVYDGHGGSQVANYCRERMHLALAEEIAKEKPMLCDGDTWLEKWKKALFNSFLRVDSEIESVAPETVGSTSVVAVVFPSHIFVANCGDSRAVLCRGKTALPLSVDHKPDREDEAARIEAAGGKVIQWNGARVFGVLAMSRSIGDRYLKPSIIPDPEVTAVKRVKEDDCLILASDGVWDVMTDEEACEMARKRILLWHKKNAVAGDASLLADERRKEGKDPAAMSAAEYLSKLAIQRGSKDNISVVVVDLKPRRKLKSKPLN
UniProt O04719: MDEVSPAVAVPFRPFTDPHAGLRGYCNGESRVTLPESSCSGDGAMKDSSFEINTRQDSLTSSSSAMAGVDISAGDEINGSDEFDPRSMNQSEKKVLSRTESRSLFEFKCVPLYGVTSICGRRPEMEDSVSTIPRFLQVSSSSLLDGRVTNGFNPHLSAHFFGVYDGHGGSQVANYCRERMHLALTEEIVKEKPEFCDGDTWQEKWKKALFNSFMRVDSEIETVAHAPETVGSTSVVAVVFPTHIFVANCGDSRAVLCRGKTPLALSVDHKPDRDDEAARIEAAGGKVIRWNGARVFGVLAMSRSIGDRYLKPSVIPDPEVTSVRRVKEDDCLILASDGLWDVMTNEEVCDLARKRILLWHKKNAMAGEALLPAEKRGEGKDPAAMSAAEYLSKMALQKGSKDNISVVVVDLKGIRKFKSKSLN

For one experiment, the target named is T1, YFP^C-GEF1 (Arabidopsis thaliana) (UniProt Q93ZY2).
T1 sequence: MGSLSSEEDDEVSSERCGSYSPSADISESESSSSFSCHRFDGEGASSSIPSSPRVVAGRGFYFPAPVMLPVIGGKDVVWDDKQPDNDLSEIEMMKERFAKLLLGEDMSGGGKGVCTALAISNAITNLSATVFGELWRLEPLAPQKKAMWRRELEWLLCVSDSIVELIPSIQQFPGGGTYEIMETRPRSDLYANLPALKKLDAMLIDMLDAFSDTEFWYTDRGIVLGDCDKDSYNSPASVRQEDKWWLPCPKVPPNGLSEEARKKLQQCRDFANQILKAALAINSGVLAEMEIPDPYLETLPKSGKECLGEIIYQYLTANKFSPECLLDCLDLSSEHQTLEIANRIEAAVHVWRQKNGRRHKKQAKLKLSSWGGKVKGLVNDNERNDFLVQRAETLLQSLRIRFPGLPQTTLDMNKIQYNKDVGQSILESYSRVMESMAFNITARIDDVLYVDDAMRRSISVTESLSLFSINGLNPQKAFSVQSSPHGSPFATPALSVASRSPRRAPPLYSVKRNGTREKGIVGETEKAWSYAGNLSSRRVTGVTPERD
As to the kind of experiment: split reporter; BiFC with YFP^N and YFP^C fusions in N. benthamiana leaves, confocal imaging; fluorescence quantified relative to ROP11-GEF1.
For “ROP11 (BiFC construct) (from UniProt O82481 1-215)”, the binding result is listed as “binds”.
On the same count and under the same terms, to “YFP^N-ABI1 (from UniProt P49597 1-434) (enzyme)” belongs “binds”.
With “YFP^N-ABI2 (from UniProt O04719 1-423) (enzyme)”, the binding result is listed as “binds weakly”.

In a further experiment the target is T2, RopGEF1 (yeast two-hybrid bait fusion) (Arabidopsis thaliana) (UniProt Q93ZY2).
T2 sequence: T1 sequence
The experiment can be described thus: two-hybrid; yeast PJ69-4A, USER-modified pGBT9 and pGADGH; growth on SD-L-W-H with 3 mM 3-AT for 6 d; ABI1/PYL1 without ABA.
“ROP11 (yeast two-hybrid fusion) (from UniProt O82481 1-215)”: the binding entry is on record as “binds”.
Same read-out and setting: as for “ABI2 (yeast two-hybrid fusion) (from UniProt O04719 1-423) (enzyme)”, the entry is “binds weakly”; as for “ABI1 (yeast two-hybrid fusion) (from UniProt P49597 1-434) (enzyme)”, “binds”.

The values are drawn from article PMC4871701.
